Holding throughout (assay): two-hybrid; yeast Y2HGold, pGBKT7 bait and pGADT7 prey, growth on SD-Leu-Trp-His-Ade with X-α-Gal
In assay [1] the target is T1, BD-PAP9 (Arabidopsis thaliana) (UniProt Q9LU64).
T1 sequence: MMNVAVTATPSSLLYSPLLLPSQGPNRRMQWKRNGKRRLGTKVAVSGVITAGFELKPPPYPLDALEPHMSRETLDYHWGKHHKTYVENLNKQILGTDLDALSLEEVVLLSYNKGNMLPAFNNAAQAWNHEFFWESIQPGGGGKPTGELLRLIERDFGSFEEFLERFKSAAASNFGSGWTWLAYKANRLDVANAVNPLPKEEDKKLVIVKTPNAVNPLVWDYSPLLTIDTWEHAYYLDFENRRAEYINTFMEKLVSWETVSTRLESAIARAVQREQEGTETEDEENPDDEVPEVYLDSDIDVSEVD

Assay [2] concerns the target T2, RpoA yeast two-hybrid fusion (Arabidopsis thaliana) (UniProt P56762).
T2 sequence: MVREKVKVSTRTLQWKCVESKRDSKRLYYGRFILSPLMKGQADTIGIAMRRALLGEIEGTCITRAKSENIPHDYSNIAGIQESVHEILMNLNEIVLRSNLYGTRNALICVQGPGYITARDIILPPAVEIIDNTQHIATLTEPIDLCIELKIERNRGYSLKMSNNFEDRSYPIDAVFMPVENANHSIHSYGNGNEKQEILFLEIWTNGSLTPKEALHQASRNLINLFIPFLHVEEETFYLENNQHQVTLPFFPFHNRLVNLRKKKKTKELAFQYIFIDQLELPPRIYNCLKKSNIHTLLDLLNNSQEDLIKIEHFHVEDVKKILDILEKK

For assay [3], the target named is T3, RpoC1 yeast two-hybrid fusion (Arabidopsis thaliana) (UniProt P56763).
T3 sequence: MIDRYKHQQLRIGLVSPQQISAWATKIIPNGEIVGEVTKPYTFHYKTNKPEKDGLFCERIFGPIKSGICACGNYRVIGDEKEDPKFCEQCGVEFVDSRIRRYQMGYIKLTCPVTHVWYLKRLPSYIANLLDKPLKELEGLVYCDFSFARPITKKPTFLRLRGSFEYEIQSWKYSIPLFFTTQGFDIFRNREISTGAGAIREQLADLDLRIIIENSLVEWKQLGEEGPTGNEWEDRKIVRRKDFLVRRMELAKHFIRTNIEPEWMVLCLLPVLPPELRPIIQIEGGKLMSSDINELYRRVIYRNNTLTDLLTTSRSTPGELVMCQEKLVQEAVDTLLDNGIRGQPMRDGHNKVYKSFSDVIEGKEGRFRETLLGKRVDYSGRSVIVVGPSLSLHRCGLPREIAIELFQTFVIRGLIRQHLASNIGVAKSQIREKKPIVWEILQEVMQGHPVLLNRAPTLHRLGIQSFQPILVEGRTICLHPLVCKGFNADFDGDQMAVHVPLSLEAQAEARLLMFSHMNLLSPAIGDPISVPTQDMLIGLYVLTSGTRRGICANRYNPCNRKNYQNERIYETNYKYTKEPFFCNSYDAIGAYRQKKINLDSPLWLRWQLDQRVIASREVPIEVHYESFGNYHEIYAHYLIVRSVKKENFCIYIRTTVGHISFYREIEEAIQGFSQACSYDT

In assay [4] the target is T4, RpoC2 yeast two-hybrid fusion (Arabidopsis thaliana) (UniProt P56764).
T4 sequence: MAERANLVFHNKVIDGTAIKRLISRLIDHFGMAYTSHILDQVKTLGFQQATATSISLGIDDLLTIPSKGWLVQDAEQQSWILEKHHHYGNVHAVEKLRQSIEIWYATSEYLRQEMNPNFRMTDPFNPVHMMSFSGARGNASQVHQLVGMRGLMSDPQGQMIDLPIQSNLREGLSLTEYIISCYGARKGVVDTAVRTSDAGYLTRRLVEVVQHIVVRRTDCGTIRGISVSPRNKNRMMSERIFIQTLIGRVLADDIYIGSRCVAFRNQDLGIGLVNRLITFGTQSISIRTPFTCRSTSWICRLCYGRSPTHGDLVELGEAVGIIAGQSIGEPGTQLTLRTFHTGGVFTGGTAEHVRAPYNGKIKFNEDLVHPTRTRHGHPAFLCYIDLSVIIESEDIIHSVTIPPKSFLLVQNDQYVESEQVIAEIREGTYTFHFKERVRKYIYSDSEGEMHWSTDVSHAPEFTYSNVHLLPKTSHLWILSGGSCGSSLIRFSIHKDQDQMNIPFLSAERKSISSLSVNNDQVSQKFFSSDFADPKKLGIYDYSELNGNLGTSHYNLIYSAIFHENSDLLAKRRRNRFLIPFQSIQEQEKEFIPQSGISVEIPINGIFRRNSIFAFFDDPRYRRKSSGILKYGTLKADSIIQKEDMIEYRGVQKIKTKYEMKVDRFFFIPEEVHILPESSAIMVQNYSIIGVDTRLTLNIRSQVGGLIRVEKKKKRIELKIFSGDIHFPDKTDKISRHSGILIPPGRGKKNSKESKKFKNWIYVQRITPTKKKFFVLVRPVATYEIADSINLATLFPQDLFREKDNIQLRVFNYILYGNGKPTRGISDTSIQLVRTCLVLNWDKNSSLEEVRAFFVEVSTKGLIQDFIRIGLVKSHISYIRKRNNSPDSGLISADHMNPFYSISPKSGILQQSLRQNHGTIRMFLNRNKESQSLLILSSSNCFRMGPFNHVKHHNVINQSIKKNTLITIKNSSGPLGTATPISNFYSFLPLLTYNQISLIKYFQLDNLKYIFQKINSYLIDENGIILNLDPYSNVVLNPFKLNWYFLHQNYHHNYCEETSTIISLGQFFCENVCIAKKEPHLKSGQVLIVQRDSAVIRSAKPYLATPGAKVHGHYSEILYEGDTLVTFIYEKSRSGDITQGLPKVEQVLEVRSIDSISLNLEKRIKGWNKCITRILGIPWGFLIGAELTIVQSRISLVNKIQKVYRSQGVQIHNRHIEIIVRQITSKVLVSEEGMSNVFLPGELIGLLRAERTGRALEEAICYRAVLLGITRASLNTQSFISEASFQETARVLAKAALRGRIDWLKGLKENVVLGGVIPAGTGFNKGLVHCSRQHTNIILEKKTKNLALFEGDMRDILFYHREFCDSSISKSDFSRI

No constants are given. Whether binding was seen depends on the method and setting. For some of these results: Binding calls can cover weak binding; strength is not graded here. Tags and fused reporters may be left off the sequences shown.

For the substance AD-AtNusG (Arabidopsis thaliana), the binding entry in assay [1] was “binds”; in assay [2] it was “no binding”; in assay [3], “no binding”; in assay [4], “no binding”.

(Values after paper PMC9262611.)
